Patent US20110183911A1, “METHOD FOR IMPROVING NEUROTRANSMISSION FAILURE USING A NOVEL AGENT” (JURIDICAL FOUNDATION THE CHEMO-SERO-THERAPEUTIC RESEARCH …, priority 2002, published 2011)
At least one structure is not confirmed: it was looked up by name or label, or the drawing left a doubt.

System: cultured primary neurons
Assay: Activation of primary neurons by NO (SNAP): mitochondrial dehydrogenase activity, Cell Counting kit-8
Format: cell-based
Settings: mouse primary neurons, SNAP 50 μM, 15 hours; Selenoprotein P or sodium selenite 1 μM, fragment 0.26 μM as selenium (FIG. 3)
Source text: In order to study the effect of Selenoprotein P on the neurotic activity of NO as synaptic neurotransmitter, cultured primary neurons were subject to the action of an NO generator, S-nitroso-N-acetyl-DL-penicillamine (SNAP, manufactured by DOJINDO LABORATORIES), in the presence of Selenoprotein P to determine as to whether a respiratory capacity of neuronal mitochondria is altered in the presence of Selenoprotein P. For determination of a respiratory capacity of mitochondria, a kit was used that readily measured the dehydrogenase activity in the mitochondrial inner membrane (Cell Counting kit-8, manufactured by DOJINDO LABORATORIES).
Fetus was removed from C57BL/6 mouse of 14-day pregnancy (purchased from Charles River Japan, Inc.). The cerebral cortex from the fetus was treated and dispersed with 0.25% trypsinized EDAT and then cultured in Neurobasal Medium (Gibco BRL.) supplemented with B27 supplement (Gibco ERL.) in 5% CO2 incubator at 37° C. for culture of primary neurons. […] After developing reaction, each 100 μL of the culture supernatant was transferred to a 96-well microtiter plate and then absorption was measured at a wave-length of 450 nm with a microtiter plate reader with a reference wave-length of 650 nm.

`O=[Se](O)O` [sodium selenite, reference compound] was tested, and the “Mitochondrial respiratory capacity of the neurons in the presence of NO generator SNAP” value was “not being detected”.
